Taken from: PubChem BioAssay AID504791 (Drosophila RNAi Screening Center, 2011)
The deposit covers about 23,000 reagents; below is a random part of those that have a named target and a result. Over the whole deposit, 199 (0.86%) were called active. 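Plate-scaled ratios behind the calls are not deposited; printed light signals are raw; many rows marked increased or decreased are still called inactive.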 No sequences are given here. Not stated in the record: the direction of the score.

- Screen: 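Genes of the fly required for silencing by miRNA, siRNA or endo-siRNA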 (primary screen)
- System: Drosophila S2-derived reporter cells
- Reagent: long dsRNA against Drosophila genes, about 150-250 ng dsRNA per well (siRNA assay); about 80-120 ng (miRNA assay)
- Time to read-out: about 5 days (siRNA assay); about 4 days (miRNA assay)
- Treatment: copper sulfate induction of reporters: 25 µM (siRNA assay); 200 mM stated (miRNA assay), 1-2 days before reading
- Measurement: 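Per-well ratio of Renilla over firefly light, expressed relative to that plate's average ratio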
- Active means: 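a well was a first-pass pick when its plate-scaled ratio rose above 1.5 (siRNA assay) or 1.6 (miRNA assay), or dropped below 0.6; a gene counted only if two separate dsRNAs agreed on retest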

no.	Gene	dsRNA	miRNA reporter change	stable assay Renilla, run 1 (luminescence)	stable assay firefly, run 1 (luminescence)	Outcome
1	dyw (GeneID 31252)	DRSC18228		5747	3.46e5	inactive
2	CG13907 (GeneID 38104)	DRSC08377		11290	3.86e5	inactive
3	Ir93a (GeneID 42471)	DRSC15212		13988	5.95e5	inactive
4	Ir93a (GeneID 42471)	DRSC15213		6588	2.93e5	inactive
5	CAH8 (GeneID 42625)	DRSC15784		6835	3.39e5	inactive
6	CG31848 (GeneID 318980)	DRSC01309		5486	4.28e5	inactive
7	CG14624 (GeneID 31068)	DRSC18634		5319	3.79e5	inactive
8	sip3 (GeneID 43747)	DRSC15402		7098	4.58e5	inactive
9	sip3 (GeneID 43747)	DRSC29484	reporter ratio lowered past the hit cutoff			inactive
10	CG1910 (GeneID 43741)	DRSC15400		6314	4.31e5	inactive
11	Ir31a (GeneID 318912)	DRSC22358		9056	6.22e5	inactive
12	Dlg5 (GeneID 34573)	DRSC02964		5870	4.67e5	inactive
13	snk (GeneID 41607)	DRSC17060		7543	4.50e5	inactive
14	gt (GeneID 31227)	DRSC18782		5807	2.69e5	inactive
15	gt (GeneID 31227)	DRSC23119		3908	2.02e5	inactive
16	CG4701 (GeneID 34858)	DRSC01952		6374	3.51e5	inactive
17	Tsen34 (GeneID 2768977)	DRSC22932		4463	4.68e5	inactive
18	Ugt316A1 (GeneID 40079)	DRSC10376		6216	3.54e5	inactive
19	CG4318 (GeneID 32266)	DRSC19887		4872	3.61e5	inactive
20	CG34196 (GeneID 5740437)	DRSC05704		5760	4.87e5	inactive
21	vrs (GeneID 41537)	DRSC15832		5962	3.47e5	inactive
22	CG13055 (GeneID 39779)	DRSC09936		5672	2.86e5	inactive
23	Crk (GeneID 43775)	DRSC17163		8249	5.40e5	inactive
24	alphaTub84B (GeneID 40848)	DRSC12622		8243	4.52e5	inactive
25	PIG-S (GeneID 42979)	DRSC14643		8991	3.64e5	inactive
26	PIG-S (GeneID 42979)	DRSC15388		6863	3.60e5	inactive
27	PIG-S (GeneID 42979)	DRSC15952		9053	3.20e5	inactive
28	AdamTS-A (GeneID 41887)	DRSC14992		7868	5.40e5	inactive
29	AdamTS-A (GeneID 41887)	DRSC15966		7238	4.32e5	inactive
30	Non2 (GeneID 38341)	DRSC08272		11410	3.80e5	inactive
31	Bgb (GeneID 38198)	DRSC08148		8784	3.55e5	inactive
32	CG8563 (GeneID 38826)	DRSC10996		6135	3.31e5	inactive
33	CG12075 (GeneID 31815)	DRSC17801		8535	3.83e5	inactive
34	lncRNA:CR41601 (GeneID 5740627)	DRSC22158		9019	6.36e5	inactive

Limited to “stable assay Renilla, run 1 (luminescence)” (6 entries from above):
alphaTub84B (GeneID 40848) [DRSC12622]	8243
PIG-S (GeneID 42979) [DRSC14643]	8991
PIG-S (GeneID 42979) [DRSC15388]	6863
PIG-S (GeneID 42979) [DRSC15952]	9053
AdamTS-A (GeneID 41887) [DRSC14992]	7868
AdamTS-A (GeneID 41887) [DRSC15966]	7238
